In ChEMBL document CHEMBL3885861, “Open TG-GATES”:

What was measured:
Rattus norvegicus [1] = species on record: Rattus norvegicus; assay: Open TG-GATES - Regimen: Single; type: toxicity, organism-based, Sprague-Dawley; set-up: regimen Single, gender Male, age 6 weeks; conditions: in vivo, po, route gavage
Rattus norvegicus [2] = species on record: Rattus norvegicus; assay: Open TG-GATES - Regimen: Daily Repeat; type: toxicity, organism-based, Sprague-Dawley; set-up: regimen Daily Repeat, gender Male, age 6 weeks; conditions: in vivo, po, route gavage
[3] = 100 mg/kg, 3 h, tissue Blood, dose level Low

## COC(=O)C1=C(C)NC(C)=C(C(=O)OC)C1c1ccccc1[N+](=O)[O-] [NIFEDIPINE]
Rattus norvegicus [1]; 0 mg/kg, 6 h, tissue Plasma, dose level Control
  Ca: 10.5 mg/dL
Rattus norvegicus [1]; [3]
  APTT: 15.3 s
  Neu: 22.6%
Rattus norvegicus [1]; 100 mg/kg, 3 h, tissue Plasma, dose level Low
  BUN: 23.2 mg/dL
Rattus norvegicus [1]; 1000 mg/kg, 9 h, tissue Plasma, dose level High
  ALT: 50.2 IU/L
Rattus norvegicus [2]; 0 mg/kg, […], tissue Plasma, dose level Control, time 14 day
  Ca: 11.2 mg/dL
Rattus norvegicus [2]; 100 mg/kg, […], tissue Blood, dose level Low, time 14 day
  Neu: 22.6%
Rattus norvegicus [2]; 100 mg/kg, […], tissue Plasma, dose level Low, time 14 day
  TG: 114 mg/dL
Rattus norvegicus [2]; 300 mg/kg, […], tissue Plasma, dose level Middle, time 7 day
  LDH: 98.4 IU/L
Rattus norvegicus [2]; 1000 mg/kg, 72 h, tissue Liver, dose level High, time 3 day
  LIVER: 11.2 g
Rattus norvegicus [2]; 1000 mg/kg, 72 h, tissue Plasma, dose level High, time 3 day
  Ca: 10.5 mg/dL
Rattus norvegicus [2]; 1000 mg/kg, […], tissue Plasma, dose level High, time 7 day
  Ca: 10.5 mg/dL
